From patent US8828966B2, “Method for treatment of macular degeneration by modulating P2Y12 or P2X7 receptors” (priority 2006, dated 2014)

Key:
ARPE-19 cells = assay: Lysosomal pH (pHL) with LysoSensor Yellow/Blue, high through-put screen; assay type: cell-based; details: Homo sapiens, concentration dependent rise in pH, FIG. 2B
Experimental: Lysosensor Yellow/Blue co-localized with the Lysotracker Red dye in small vesicles, with a distribution consistent with lysosomal origin. Measurements of pHL were performed using a high throughput screening (HTS) protocol to maximize output and minimize variation using ARPE-19 cells in 96 well plates. […] Loading for 5 min. at 23° C. with 5 μM lysosensor, followed by 15 min. for internalization, produced stable and reproducible results.
The ratio was converted to pH by calibrating with KCl buffered to pH 4.0-6.0 in the presence of monensin and nigericin. Calibration indicated a baseline pH of 4.4 to 4.5, supporting lysosomal localization. […] NH4Cl decreased the ratios slightly at 380 nm. Nevertheless, absent the addition of the dye, none of these compounds, or any others, altered the fluorescent signal at 340 or 380 nm, showing a specificity of the measured change to pHL. […] This quantification is necessary to predict the potential effectiveness of acidifying drugs to restore lysosomal enzyme activity.
Extensive trials determined that the optimal response is obtained with 5 minute dye loading and 15 minute post-incubation. […] All reagents were from Sigma Chemical Corp. unless otherwise indicated.
In general, each condition below used 3-12 independent wells per plate, in 3-6 separate plates. […] Significance was determined with a one-way ANOVA and Tukey post test. […]

isolated mice RPE cells = assay: Lysosomal pH (340/380 nm ratio) in freshly isolated mouse RPE cells; assay type: cell-based; details: tamoxifen 30 μM

For CC/C(=C(\c1ccccc1)c1ccc(OCCN(C)C)cc1)c1ccccc1 [tamoxifen], the EC50 (ARPE-19 cells) was 22 µM and the “340/380 nm ratio (index of lysosomal pH)” value (isolated mice RPE cells) was “increased the 340/380 nm ratio”.
